Data on 27 compounds can be found in PubChem BioAssay AID248 (DTP/NCI, 2004).

The list shows only some results of the screen, not a fair sample: it is rich in T/C values a quarter to a half above the control, in often repeated tests (any T/C) and in doses without a T/C. Other doses and runs of a compound stand elsewhere. T/C: endpoint of the treated group in % of that of the vehicle group. Some entries give survivors of the animals treated and no T/C: the source holds a T/C of zero for them, seemingly a mark for toxic or unscored doses. Some survivor counts are full or nearly so, which does not show that the dose was tolerated: survival well below the control is almost never listed, so the zero probably covers shortened survival too. Survivors were counted at the toxicity check, usually on the fifth day, unless a day is given; later deaths do not show. Schedules are NCI's codes, taken here to give the interval after Q, in days (D) or hours (H), and the number of doses after X. Some doses were run more than once; the values are given in rising order. Some schedules carry Z or #; the key to these is not given. For survival time, this PubChem deposit counts one and a half times the control or more as active, and values a quarter to a half above the control carry no call in these data; other NCI protocols may use other cut-offs.

This experiment concerns L1210 leukemia ip in BDF1 mice, survival T/C. The experiment is described as follows: NCI In Vivo Anticancer Drug Screen. Data for tumor model L1210 Leukemia (intraperitoneal) in B6D2F1 (BDF1) mice. Conditions: T/C endpoint: mean survival time, higher T/C = longer survival.
Where [1] appears, read: dose: 400.0 mg/kg/injection, schedule: Q01DX001 (ip), vehicle: saline.
Where [2] appears, read: dose: 400.0 mg/kg/injection, schedule: Q01DX001 (ip), vehicle: saline with Tween-80.
Where [3] appears, read: dose: 400.0 mg/kg/injection, schedule: Q04DX003 (ip), vehicle: Klucel (hydroxypropylcellulose) (HPC).
[4] abbreviates: dose: 100.0 mg/kg/injection, schedule: Q01DX009 (ip), vehicle: saline with Tween-80.
[5] abbreviates: dose: 200.0 mg/kg/injection, schedule: Q04DX003 (ip), vehicle: Klucel (hydroxypropylcellulose) (HPC).
Where [6] appears, read: dose: 100.0 mg/kg/injection, schedule: Q04DX003 (ip), vehicle: Klucel (hydroxypropylcellulose) (HPC).

With `CCOC(CCl)(OCC)OCC`, the survivor count (dose: 400.0 mg/kg/injection, schedule: Q04DX002 (ip), vehicle: saline with Tween-80) is listed as 0 of 3.

Regarding `CN(CC#CCOc1ccc(Cl)cc1)c1ccccc1`, the survivor count is recorded as 3 of 3 (dose: 100.0 mg/kg/injection, schedule: Q04DX002 (ip), vehicle: carboxymethylcellulose (CMC)) and 3 of 3 (dose: 200.0 mg/kg/injection, schedule: Q04DX002 (ip), vehicle: carboxymethylcellulose (CMC)).

On to `O=C(/C(=C/c1ccc(Cl)cc1)c1ccccc1)c1ccc(O)cc1`, for which the survivor count (dose: 100.0 mg/kg/injection, schedule: Q01DX001 (ip), vehicle: saline) is given as 4 of 4.

Consider `Cc1cccc(Nc2cc(C)nc(N)n2)c1`, for which the survivor count (dose: 100.0 mg/kg/injection, schedule: Q01DX Z (ip), vehicle: methylcellulose (MC)) was 1 of 6 and the survivor count (dose: 200.0 mg/kg/injection, schedule: Q01DX Z (ip), vehicle: methylcellulose (MC)) was 5 of 6.

`CC(O)C(NCNC(=O)C1=C(O)C2(O)C(=O)C3=C(O)c4c(O)cccc4C(C)(O)C3CC2C(N(C)C)C1=O)C(=O)O` (stereo unspecified): the survivor count (dose: 112.0 mg/kg/injection, schedule: Q01DX Z (ip), vehicle: saline) is on record as 6 of 6. The T/C (dose: 960.0 mg/kg/injection, schedule: Q01DX Z (ip), vehicle: saline) is 126 % of control.

Regarding `CCCSCCCC(=O)O`, the survivor count (dose: 400.0 mg/kg/injection, schedule: Q01DX009 (ip), vehicle: Klucel (hydroxypropylcellulose) (HPC)) is on record as 2 of 6.

Take `O=C(Cl)C1C2C=CC(C2)C1C(=O)Cl` (stereo unspecified): the survivor count is on record as 0 of 4 (dose: 200.0 mg/kg/injection, schedule: Q01DX001 (ip), vehicle: saline) and 0 of 4 under setting [1].

For `COc1ccc2nc3cc(Cl)ccc3c(Nc3ccc(O)cc3)c2c1`, under “dose: 400.0 mg/kg/injection, schedule: Q01DX009 (ip), vehicle: saline with Tween-80”, the survivor count is reported as 5 of 6.

In the case of `O=C(OCC1OCC(OC(=O)c2ccccc2)C1OC(=O)c1ccccc1)c1ccccc1` (stereo unspecified), the survivor count under setting [2] was 3 of 3.

For the compound `Cc1ccc(C)c(NC(=O)Oc2ccc(F)cc2Cl)c1`, the survivor count under setting [3] is 3 of 6.

`O=S1(=O)C=C(c2ccccc2)C(c2ccccc2)=C1`: the survivor count (dose: 50.0 mg/kg/injection, schedule: Q01DX009 (ip), vehicle: saline with Tween-80) is given as 6 of 6; the survivor count under setting [4] is 3 of 6 and 4 of 6; the survivor count under setting [5] is recorded as 6 of 6; the survivor count under setting [3] is 4 of 6.

Consider `CC([NH-])=O.CC([NH-])=O.[Pt+2]`, for which the survivor count is, setting by setting: (dose: 300.0 mg/kg/injection, schedule: Q01DX009 (ip), vehicle: water) 0 of 6; (dose: 400.0 mg/kg/injection, schedule: Q04DX003 (ip), vehicle: water) 2 of 6.

Consider `Nc1nc(N)c(CCCOc2ccc(NC(=O)c3cccc(S(=O)OF)c3)cc2)c(N)n1` (stereo unspecified), for which the survivor count was 0 of 6 (dose: 200.0 mg/kg/injection, schedule: Q01DX015 (ip), vehicle: saline); 0 of 6 (dose: 300.0 mg/kg/injection, schedule: Q01DX015 (ip), vehicle: saline); 0 of 6 (dose: 500.0 mg/kg/injection, schedule: Q01DX015 (ip), vehicle: saline).

As for `COC1=C(Nc2ccc(C)cc2)C(=O)C(OC)=C(Nc2ccc(C)cc2)C1=O`, the survivor count under setting [1] is listed as 4 of 4.

Take `c1ccc(NP2(Nc3ccccc3)=NP(Nc3ccccc3)(Nc3ccccc3)=NP(Nc3ccccc3)(Nc3ccccc3)=N2)cc1`: under setting [3], the survivor count was 3 of 3.

Regarding `CCCN(CCC)NC(=O)c1ccc(N=NN(C)C)cc1`, the survivor count by setting is: (dose: 200.0 mg/kg/injection, schedule: Q01DX001 (ip), vehicle: saline with Tween-80) 1 of 3; under setting [2], 0 of 3.

As to `C[P+](Cc1ccccc1)(c1ccccc1)c1ccccc1`, the survivor count is on record as 0 of 6 (dose: 9.5 mg/kg/injection, schedule: Q01DX001 (ip), vehicle: other); 1 of 6 (dose: 19.0 mg/kg/injection, schedule: Q01DX001 (ip), vehicle: other); 0 of 6 (dose: 38.0 mg/kg/injection, schedule: Q01DX001 (ip), vehicle: other); 0 of 6 (dose: 75.0 mg/kg/injection, schedule: Q01DX001 (ip), vehicle: other); 0 of 6 (dose: 150.0 mg/kg/injection, schedule: Q01DX001 (ip), vehicle: other); 0 of 6 (dose: 300.0 mg/kg/injection, schedule: Q01DX001 (ip), vehicle: other).

As for `CC(=O)C(Cl)C(C)=O.CC(=O)C(Cl)C(C)=O.CO.CO.[Ni]`, the survivor count (dose: 50.0 mg/kg/injection, schedule: Q01DX009 (ip), vehicle: other) is reported as 5 of 6 and the survivor count under setting [1] is 0 of 6.

As to `O=c1nc2n(CCN(CCO)CCO)c3cc(Cl)c(Cl)cc3nc-2c(=O)[nH]1`, the survivor count is 2 of 6 (dose: 75.0 mg/kg/injection, schedule: Q01DX001 (ip), vehicle: saline); 0 of 6 (dose: 150.0 mg/kg/injection, schedule: Q01DX001 (ip), vehicle: saline); 0 of 6 (dose: 300.0 mg/kg/injection, schedule: Q01DX001 (ip), vehicle: saline).

Regarding `CCOC(=O)c1ccc(N=NN(C)C(C)CC)cc1` (stereo unspecified), the T/C was 125 % of control (dose: 100.0 mg/kg/injection, schedule: Q01DX009 (ip), vehicle: Klucel (hydroxypropylcellulose) (HPC)) and 133 % of control (dose: 200.0 mg/kg/injection, schedule: Q01DX009 (ip), vehicle: Klucel (hydroxypropylcellulose) (HPC)).

Turning to `CC(C)(C)c1cc(CN2CCCCC2)cc(C(C)(C)C)c1O`, the survivor count under setting [6] was 2 of 6, the survivor count under setting [5] is on record as 0 of 6 and the survivor count under setting [3] is 0 of 6.

Regarding `O=C(Nc1ccc(C2=NCCN2)cc1)c1cncc(C(=O)Nc2ccc(C3=NCCN3)cc2)c1`, the T/C is 127 % of control (dose: 4.0 mg/kg/injection, schedule: Q01DX Z (ip), vehicle: saline) and 145 % of control (dose: 8.0 mg/kg/injection, schedule: Q01DX Z (ip), vehicle: saline). Besides, the survivor count (dose: 120.0 mg/kg/injection, schedule: Q01DX Z (ip), vehicle: carboxymethylcellulose (CMC)) is 6 of 6.

For `CSc1nc(=O)[nH]nc1SCc1ccccc1`, for the setting “dose: 200.0 mg/kg/injection, schedule: Q01DX001 (ip), vehicle: carboxymethylcellulose (CMC)”, the T/C is 148 % of control.

Regarding `CC1(c2ccc3ccccc3c2)OC(=O)c2ccccc21` (stereo unspecified), under setting [4], the survivor count was 6 of 6.

Regarding `Cc1ccc(NC(=O)N(CCCl)N=O)c(NC(=O)N(CCCl)N=O)c1`, the T/C (dose: 50.0 mg/kg/injection, schedule: Q01DX001 (ip), vehicle: carboxymethylcellulose (CMC), evaluated on day 30) was 137 % of control; the T/C (dose: 50.0 mg/kg/injection, schedule: Q01DX001 (ip), vehicle: carboxymethylcellulose (CMC), run until all animals had died) is 135 % of control; the T/C (dose: 75.0 mg/kg/injection, schedule: Q01DX001 (ip), vehicle: carboxymethylcellulose (CMC)) is 127 and 141 % of control; the T/C (dose: 150.0 mg/kg/injection, schedule: Q01DX001 (ip), vehicle: carboxymethylcellulose (CMC)) was 129 % of control. In addition, the survivor count was 6 of 6 (dose: 75.0 mg/kg/injection, schedule: Q01DX009 (ip), vehicle: carboxymethylcellulose (CMC)); 3 of 6 (dose: 112.5 mg/kg/injection, schedule: Q01DX009 (ip), vehicle: carboxymethylcellulose (CMC)); 5 of 6 (dose: 300.0 mg/kg/injection, schedule: Q01DX001 (ip), vehicle: carboxymethylcellulose (CMC)).

Take `O=C(CCl)N1CCN(C(=O)CCl)CC1`: the survivor count is, setting by setting: (dose: 40.0 mg/kg/injection, schedule: Q01DX009 (ip), vehicle: Klucel (hydroxypropylcellulose) (HPC)) 4 of 6; (dose: 80.0 mg/kg/injection, schedule: Q04DX003 (ip), vehicle: Klucel (hydroxypropylcellulose) (HPC)) 0 of 6; under setting [6], 0 of 6; under setting [5], 0 of 6; under setting [3], 0 of 6.

For the compound `Nc1ccccc1C(=O)O`, for the setting “dose: 400.0 mg/kg/injection, schedule: Q01DX001 (ip), vehicle: carboxymethylcellulose (CMC)”, the T/C was 143 % of control.
